Some of the results follow.
Key:
Assay in all cases: log2 fold change, soluble protein after heating vs DMSO (PISA); higher = thermal stabilisation; K562 lysate, 10 uM; active = over 0.2 and 3.5 SD of the protein, either way, in both replicates (recomputed)
[1] = compound: CN1CC[C@H](c2c(O)cc(O)c3c(=O)cc(-c4ccccc4Cl)oc23)[C@H](O)C1 [alvocidib]
Procedure, shortened: (§1)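 The values are log-two fold changes in thermal stability compared with solvent controls and come from duplicates. They were obtained by TMTpro 16plex LC-MS/MS, with channel sums equalised, on the supernatant after 21,000xg for 90 min. That supernatant came from crude K562 extract at 1 mg/mL protein treated with 10 μM compound for 30 min, heated for 3 min across 48°C-58°C, pooled and brought to 0.5% NP-40 at 4°C.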

By UniProt entry, the sequences of proteins in these tests, tags left out. Where a name states a change or a piece, a line headed by the entry shows the natural chain unless it says otherwise.
UniProt O75380, whole entry, looked up: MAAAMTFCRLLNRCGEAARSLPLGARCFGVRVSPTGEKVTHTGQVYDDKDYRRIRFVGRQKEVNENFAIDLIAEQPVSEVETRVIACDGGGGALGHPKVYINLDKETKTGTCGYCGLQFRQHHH
UniProt Q92692, whole entry, looked up: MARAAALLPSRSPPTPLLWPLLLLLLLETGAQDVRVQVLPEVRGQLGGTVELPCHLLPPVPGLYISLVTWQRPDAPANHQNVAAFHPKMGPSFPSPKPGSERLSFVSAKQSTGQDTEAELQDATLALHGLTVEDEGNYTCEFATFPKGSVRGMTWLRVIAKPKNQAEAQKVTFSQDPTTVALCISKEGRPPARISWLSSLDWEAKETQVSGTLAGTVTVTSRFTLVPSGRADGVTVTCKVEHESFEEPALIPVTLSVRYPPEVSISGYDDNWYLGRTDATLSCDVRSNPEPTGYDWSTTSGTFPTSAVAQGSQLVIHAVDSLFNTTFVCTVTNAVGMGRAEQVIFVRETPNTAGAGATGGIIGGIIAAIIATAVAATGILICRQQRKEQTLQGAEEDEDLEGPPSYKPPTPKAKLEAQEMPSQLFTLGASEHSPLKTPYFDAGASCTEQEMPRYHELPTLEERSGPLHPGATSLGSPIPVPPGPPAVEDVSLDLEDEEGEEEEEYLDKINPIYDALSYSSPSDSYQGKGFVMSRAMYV
UniProt P19404, whole entry, looked up: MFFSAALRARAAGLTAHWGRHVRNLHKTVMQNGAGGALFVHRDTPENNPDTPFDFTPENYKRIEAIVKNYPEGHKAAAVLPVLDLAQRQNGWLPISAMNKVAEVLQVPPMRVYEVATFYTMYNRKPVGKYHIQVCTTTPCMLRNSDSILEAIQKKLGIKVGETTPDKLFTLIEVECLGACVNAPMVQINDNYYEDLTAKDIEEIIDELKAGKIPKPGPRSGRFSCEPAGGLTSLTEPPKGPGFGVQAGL
UniProt Q9NXR1: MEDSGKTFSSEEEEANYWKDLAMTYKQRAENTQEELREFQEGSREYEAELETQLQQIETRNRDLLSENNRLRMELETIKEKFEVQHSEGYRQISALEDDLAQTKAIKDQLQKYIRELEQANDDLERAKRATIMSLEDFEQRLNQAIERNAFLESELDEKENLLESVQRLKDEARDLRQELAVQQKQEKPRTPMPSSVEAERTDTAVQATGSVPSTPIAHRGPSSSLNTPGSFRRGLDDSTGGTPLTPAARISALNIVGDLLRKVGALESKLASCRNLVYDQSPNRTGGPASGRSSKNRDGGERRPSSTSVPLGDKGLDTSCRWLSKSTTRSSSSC
UniProt O43678, whole entry, looked up: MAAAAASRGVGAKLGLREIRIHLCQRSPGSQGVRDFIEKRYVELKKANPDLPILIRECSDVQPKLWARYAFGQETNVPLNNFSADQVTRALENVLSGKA
UniProt P30414: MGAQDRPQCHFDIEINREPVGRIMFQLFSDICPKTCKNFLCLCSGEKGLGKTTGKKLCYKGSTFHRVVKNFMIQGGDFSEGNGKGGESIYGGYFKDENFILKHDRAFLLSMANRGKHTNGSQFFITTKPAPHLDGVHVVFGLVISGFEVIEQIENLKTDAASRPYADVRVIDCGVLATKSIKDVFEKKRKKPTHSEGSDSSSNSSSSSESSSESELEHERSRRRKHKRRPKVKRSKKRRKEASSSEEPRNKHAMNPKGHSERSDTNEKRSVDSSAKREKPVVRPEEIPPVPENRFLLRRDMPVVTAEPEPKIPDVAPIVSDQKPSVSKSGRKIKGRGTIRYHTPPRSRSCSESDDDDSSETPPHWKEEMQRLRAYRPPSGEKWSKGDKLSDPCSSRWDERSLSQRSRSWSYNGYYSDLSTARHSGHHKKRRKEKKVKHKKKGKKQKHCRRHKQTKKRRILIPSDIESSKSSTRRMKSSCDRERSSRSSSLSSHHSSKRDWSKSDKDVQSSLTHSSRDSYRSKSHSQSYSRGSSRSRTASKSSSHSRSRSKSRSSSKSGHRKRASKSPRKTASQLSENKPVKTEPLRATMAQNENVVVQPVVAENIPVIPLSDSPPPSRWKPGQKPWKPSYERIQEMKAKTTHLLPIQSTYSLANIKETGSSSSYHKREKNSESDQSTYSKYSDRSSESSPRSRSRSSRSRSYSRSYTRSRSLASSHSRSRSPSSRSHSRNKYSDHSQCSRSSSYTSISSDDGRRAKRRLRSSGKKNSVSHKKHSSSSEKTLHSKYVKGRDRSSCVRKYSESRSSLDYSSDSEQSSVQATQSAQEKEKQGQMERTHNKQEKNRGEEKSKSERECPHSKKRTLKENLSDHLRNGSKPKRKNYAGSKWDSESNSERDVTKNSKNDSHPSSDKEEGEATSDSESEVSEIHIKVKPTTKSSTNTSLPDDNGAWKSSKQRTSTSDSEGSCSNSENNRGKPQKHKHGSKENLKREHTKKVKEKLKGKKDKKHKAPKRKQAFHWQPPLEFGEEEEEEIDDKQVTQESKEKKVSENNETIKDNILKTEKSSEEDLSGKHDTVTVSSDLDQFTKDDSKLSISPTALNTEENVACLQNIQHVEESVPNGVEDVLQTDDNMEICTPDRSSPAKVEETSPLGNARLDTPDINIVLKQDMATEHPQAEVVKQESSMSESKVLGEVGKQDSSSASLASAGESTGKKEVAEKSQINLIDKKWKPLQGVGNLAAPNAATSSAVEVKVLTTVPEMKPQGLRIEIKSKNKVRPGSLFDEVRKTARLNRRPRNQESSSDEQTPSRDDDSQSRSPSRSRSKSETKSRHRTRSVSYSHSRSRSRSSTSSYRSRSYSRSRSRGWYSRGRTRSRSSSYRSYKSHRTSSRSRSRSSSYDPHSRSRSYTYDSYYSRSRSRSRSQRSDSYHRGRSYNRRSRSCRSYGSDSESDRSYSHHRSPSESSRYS
UniProt O75251, whole entry, looked up: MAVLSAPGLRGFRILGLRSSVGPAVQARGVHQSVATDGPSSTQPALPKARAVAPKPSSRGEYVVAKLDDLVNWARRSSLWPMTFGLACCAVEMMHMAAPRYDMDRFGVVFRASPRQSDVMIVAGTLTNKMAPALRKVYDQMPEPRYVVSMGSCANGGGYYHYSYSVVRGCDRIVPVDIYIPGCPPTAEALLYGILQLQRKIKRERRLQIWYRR
UniProt O14777: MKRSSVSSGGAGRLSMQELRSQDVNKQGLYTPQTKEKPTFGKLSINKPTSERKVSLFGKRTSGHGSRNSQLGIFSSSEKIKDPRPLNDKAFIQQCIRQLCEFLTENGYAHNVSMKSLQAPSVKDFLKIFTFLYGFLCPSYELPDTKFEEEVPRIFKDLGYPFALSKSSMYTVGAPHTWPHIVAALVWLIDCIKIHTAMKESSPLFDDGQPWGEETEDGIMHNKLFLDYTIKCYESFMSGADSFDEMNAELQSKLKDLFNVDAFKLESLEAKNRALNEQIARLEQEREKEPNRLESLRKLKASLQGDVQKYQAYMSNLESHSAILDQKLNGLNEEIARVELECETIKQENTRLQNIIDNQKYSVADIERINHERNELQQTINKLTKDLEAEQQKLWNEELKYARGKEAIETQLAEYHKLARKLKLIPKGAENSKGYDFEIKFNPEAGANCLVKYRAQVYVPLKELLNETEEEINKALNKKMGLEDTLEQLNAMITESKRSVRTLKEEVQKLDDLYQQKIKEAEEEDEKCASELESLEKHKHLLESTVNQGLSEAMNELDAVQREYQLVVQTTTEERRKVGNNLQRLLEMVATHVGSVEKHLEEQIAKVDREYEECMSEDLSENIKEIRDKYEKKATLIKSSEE
UniProt P23511, whole entry, looked up: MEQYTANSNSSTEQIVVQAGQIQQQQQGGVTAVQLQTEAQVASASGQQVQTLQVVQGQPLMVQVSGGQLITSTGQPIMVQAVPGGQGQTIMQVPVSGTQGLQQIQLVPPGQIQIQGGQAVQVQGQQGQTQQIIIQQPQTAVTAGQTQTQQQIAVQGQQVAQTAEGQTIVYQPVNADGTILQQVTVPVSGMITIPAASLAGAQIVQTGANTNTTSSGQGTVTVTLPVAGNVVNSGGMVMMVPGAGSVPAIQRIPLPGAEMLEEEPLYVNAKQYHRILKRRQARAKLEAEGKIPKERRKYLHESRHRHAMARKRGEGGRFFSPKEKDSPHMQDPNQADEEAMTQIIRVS
UniProt Q8IXH7, whole entry, looked up: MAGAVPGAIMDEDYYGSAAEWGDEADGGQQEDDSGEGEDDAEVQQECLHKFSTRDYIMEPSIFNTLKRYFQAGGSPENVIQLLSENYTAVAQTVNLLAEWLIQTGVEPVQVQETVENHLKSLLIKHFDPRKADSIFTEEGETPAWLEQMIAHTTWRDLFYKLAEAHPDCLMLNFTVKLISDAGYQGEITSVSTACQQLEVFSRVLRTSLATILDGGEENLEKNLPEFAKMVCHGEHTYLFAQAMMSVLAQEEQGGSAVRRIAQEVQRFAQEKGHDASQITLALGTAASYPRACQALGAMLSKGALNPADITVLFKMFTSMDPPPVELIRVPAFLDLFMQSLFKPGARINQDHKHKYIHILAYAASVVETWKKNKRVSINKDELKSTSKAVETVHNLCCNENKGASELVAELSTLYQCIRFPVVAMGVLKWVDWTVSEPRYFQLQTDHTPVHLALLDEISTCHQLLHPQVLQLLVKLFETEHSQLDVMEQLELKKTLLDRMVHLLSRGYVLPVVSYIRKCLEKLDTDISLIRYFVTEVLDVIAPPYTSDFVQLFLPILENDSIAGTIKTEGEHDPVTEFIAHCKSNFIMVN
UniProt O60524: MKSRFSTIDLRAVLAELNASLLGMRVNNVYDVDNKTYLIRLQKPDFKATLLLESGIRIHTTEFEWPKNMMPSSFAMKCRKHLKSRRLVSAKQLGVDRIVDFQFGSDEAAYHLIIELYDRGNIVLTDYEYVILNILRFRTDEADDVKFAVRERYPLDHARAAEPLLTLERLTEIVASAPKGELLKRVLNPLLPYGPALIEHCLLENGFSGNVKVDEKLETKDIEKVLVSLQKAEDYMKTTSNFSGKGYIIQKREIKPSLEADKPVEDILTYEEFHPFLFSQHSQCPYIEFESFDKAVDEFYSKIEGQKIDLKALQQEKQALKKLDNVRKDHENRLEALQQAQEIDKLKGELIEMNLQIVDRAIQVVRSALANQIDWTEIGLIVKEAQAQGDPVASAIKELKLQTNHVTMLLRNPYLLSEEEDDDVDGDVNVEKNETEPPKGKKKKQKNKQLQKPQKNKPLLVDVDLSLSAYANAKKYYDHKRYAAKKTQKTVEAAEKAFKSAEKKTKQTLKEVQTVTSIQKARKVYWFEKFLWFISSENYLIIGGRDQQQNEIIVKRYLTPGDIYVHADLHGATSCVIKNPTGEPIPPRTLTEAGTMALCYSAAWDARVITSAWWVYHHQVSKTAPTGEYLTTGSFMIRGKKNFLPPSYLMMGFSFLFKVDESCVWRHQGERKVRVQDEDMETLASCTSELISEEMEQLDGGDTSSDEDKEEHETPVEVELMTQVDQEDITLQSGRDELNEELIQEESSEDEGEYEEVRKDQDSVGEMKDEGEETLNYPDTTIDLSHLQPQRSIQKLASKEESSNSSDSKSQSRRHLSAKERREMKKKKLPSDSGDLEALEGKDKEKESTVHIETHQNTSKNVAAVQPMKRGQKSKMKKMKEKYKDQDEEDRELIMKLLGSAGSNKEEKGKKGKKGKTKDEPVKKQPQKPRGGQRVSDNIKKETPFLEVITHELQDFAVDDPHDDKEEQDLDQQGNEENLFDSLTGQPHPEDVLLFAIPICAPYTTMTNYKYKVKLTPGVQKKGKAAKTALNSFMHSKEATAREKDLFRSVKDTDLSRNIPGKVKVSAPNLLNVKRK
UniProt O95167, whole entry, looked up: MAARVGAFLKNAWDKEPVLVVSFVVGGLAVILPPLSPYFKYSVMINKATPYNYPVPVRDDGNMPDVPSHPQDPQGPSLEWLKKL
UniProt Q9GZM8: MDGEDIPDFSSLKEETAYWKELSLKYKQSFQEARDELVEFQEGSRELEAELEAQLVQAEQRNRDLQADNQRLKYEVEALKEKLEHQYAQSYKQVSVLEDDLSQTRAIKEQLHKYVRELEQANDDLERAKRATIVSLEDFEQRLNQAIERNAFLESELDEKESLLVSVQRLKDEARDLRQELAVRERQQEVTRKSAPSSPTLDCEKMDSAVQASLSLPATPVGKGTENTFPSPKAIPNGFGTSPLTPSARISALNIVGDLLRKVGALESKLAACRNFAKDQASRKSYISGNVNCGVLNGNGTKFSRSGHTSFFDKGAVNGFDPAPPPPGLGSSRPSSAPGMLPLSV
UniProt O95096: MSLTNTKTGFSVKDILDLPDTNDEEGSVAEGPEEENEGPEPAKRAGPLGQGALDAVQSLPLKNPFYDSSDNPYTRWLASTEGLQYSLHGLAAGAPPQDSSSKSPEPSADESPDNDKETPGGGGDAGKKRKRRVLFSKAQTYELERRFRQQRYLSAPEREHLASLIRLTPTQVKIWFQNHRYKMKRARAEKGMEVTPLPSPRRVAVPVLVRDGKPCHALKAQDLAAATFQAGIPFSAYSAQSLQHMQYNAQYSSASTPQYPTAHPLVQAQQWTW
UniProt Q9NYS0: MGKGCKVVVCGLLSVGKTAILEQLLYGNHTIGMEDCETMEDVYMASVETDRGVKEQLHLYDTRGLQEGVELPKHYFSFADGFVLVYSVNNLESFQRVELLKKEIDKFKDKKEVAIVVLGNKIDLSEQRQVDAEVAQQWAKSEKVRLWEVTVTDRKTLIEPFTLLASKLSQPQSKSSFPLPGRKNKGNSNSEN

[2] = compound: CN1CCc2c(c3ccccc3n2Cc2ccc(C(=O)NO)cc2)C1 [Tubastatin A]
Procedure, shortened: as §1

[3] = compound: CNC(=O)C1=CC=CC=C1NC2=NC(=NC=C2Cl)NC3=C(C=C(C=C3)N4CCOCC4)OC
Procedure, shortened: as §1

[4] = compound: CNC(=O)c1ccc(Nc2ncc(C(F)(F)F)c(NCc3nccnc3N(C)S(C)(=O)=O)n2)cc1 [defactinib]
Procedure, shortened: as §1

[5] = compound: CNc1nc(-c2ccc3c(N)n[nH]c3c2)cc(N2C[C@@H](C(=O)NC3CCCCC3)CC[C@H]2C)n1
Procedure, shortened: as §1

[6] = compound: COC(=O)N[C@@H](C)CNc1nccc(-c2cn(C(C)C)nc2-c2cc(Cl)cc(NS(C)(=O)=O)c2F)n1 [encorafenib]
Procedure, shortened: as §1

[7] = compound: COC(=O)[C@H](CCSC)NC(=O)C1=C(C=C(C=C1)NC[C@H](CS)N)C2=CC=CC=C2
Procedure, shortened: as §1

[8] = compound: COc1cc(Nc2ncc3c(n2)-c2ccc(Cl)cc2C(c2c(F)cccc2OC)=NC3)ccc1C(=O)O [alisertib]
Procedure, shortened: as §1

[9] = compound: COc1cc2nc(-c3cc(F)ccc3O)nc(N[C@@H]3CNC[C@H]3C(C)(C)O)c2cc1OC
Procedure, shortened: as §1

[10] = compound: COc1cc2ncnc(Nc3ccc(F)c(Cl)c3)c2cc1OCCCN1CCOCC1 [gefitinib]
Procedure, shortened: as §1

Measured: log2 fold change

NDUFS6 (UniProt O75380)
inactive: [1] 0.013 | [2] 0.084 | [3] -0.003 | [4] 0.013 | [5] -0.001 | [6] -0.025 | [7] -0.033 | [8] 0.033 | [9] -0.005 | [10] -0.088

NECTIN2 isoform 2 (UniProt Q92692)
inactive: [1] 0 | [2] -0.035 | [3] -0.163 | [4] -0.191 | [5] -0.125 | [6] 0.014 | [7] -0.037 | [8] 0.033 | [9] 0.109 | [10] 0.085

NDUFAF1 (UniProt Q9Y375)
inactive: [1] 0.004 | [2] 0.051 | [3] -0.02 | [4] 0.021 | [5] 0.037 | [6] -0.022 | [7] -0.008 | [8] -0.006 | [9] 0.029 | [10] -0.101

NFATC2 (UniProt Q13469)
inactive: [1] -0.12 | [2] -0.118 | [3] 0.021 | [4] -0.028 | [5] 0.06 | [6] 0.004 | [7] 0.1 | [8] -0.047 | [9] -0.007 | [10] -0.025

NEBL isoform 2 (UniProt O76041)
inactive: [1] -0.079 | [2] 0.07 | [3] 0.012 | [4] 0.011 | [5] 0.023 | [6] 0.009 | [7] -0.043 | [8] -0.024 | [9] -0.003 | [10] 0.037

NDUFS1 isoform 2 (UniProt P28331)
inactive: [1] 0.008 | [2] -0.018 | [3] -0.024 | [4] 0.028 | [5] 0.014 | [6] -0.011 | [7] 0.05 | [8] 0.03 | [9] -0.025 | [10] -0.001

NDUFV2 (UniProt P19404)
inactive: [1] -0.02 | [2] 0.029 | [3] -0.023 | [4] 0.024 | [5] 0.002 | [6] 0.016 | [7] -0.046 | [8] -0.027 | [9] -0.003 | [10] 0.053

NDUFB5 (UniProt O43674)
inactive: [1] 0.091 | [2] -0.026 | [3] -0.038 | [4] 0.016 | [5] 0.01 | [6] 0.014 | [7] -0.074 | [8] 0.002 | [9] -0.027 | [10] 0.005

NDUFB8 (UniProt O95169)
inactive: [1] 0.025 | [2] 0.089 | [3] 0.069 | [4] 0.105 | [5] 0.085 | [6] -0.03 | [7] -0.027 | [8] 0.059 | [9] -0.033 | [10] -0.143

NDUFA4 (UniProt O00483)
inactive: [1] 0.022 | [2] 0.055 | [3] 0.054 | [4] 0.143 | [5] 0.004 | [6] 0.028 | [7] 0.009 | [8] 0.055 | [9] -0.079 | [10] -0.133

NEK3 (UniProt P51956)
inactive: [1] -0.059 | [2] -0.054 | [3] 0.068 | [4] 0.111 | [5] 0.044 | [6] 0.036 | [7] -0.024 | [8] -0.105 | [9] 0.015 | [10] 0.056

NDE1 isoform 1 (UniProt Q9NXR1)
inactive: [1] -0.064 | [2] 0.02 | [3] 0.014 | [4] 0.023 | [5] 0.018 | [6] 0.057 | [7] -0.09 | [8] 0.013 | [9] 0.017 | [10] 0.041

NDUFA2 (UniProt O43678)
inactive: [1] 0.063 | [2] 0.063 | [3] 0.04 | [4] 0.082 | [5] -0.022 | [6] -0.07 | [7] -0.01 | [8] 0.051 | [9] -0.013 | [10] -0.034

NKTR (UniProt P30414)
inactive: [1] -0.256 | [2] -0.028 | [3] 0.036 | [4] -0.092 | [5] 0.24 | [6] 0.068 | [7] -0.088 | [8] -0.029 | [9] 0.129 | [10] -0.006

NFKBIE (UniProt O00221)
inactive: [1] -0.068 | [2] 0.029 | [3] 0.055 | [4] 0.054 | [5] 0.013 | [6] 0.038 | [7] -0.14 | [8] 0.047 | [9] -0.03 | [10] 0.014

NIT1 (UniProt Q86X76)
inactive: [1] 0.02 | [2] 0.032 | [3] 0.038 | [4] -0.025 | [5] 0.119 | [6] 0.027 | [7] -0.002 | [8] 0.011 | [9] 0.027 | [10] 0.05

NHLRC2 (UniProt Q8NBF2)
inactive: [1] -0.019 | [2] -0.063 | [3] -0.021 | [4] -0.006 | [5] 0 | [6] 0.013 | [7] 0.057 | [8] 0.014 | [9] 0.004 | [10] 0.001

Eight consecutive records from above, quoted:
NDUFB8 (UniProt O95169)
inactive: [1] 0.025 | [2] 0.089 | [3] 0.069 | [4] 0.105 | [5] 0.085 | [6] -0.03 | [7] -0.027 | [8] 0.059 | [9] -0.033 | [10] -0.143

NDUFA4 (UniProt O00483)
inactive: [1] 0.022 | [2] 0.055 | [3] 0.054 | [4] 0.143 | [5] 0.004 | [6] 0.028 | [7] 0.009 | [8] 0.055 | [9] -0.079 | [10] -0.133

NEK3 (UniProt P51956)
inactive: [1] -0.059 | [2] -0.054 | [3] 0.068 | [4] 0.111 | [5] 0.044 | [6] 0.036 | [7] -0.024 | [8] -0.105 | [9] 0.015 | [10] 0.056

NDE1 isoform 1 (UniProt Q9NXR1)
inactive: [1] -0.064 | [2] 0.02 | [3] 0.014 | [4] 0.023 | [5] 0.018 | [6] 0.057 | [7] -0.09 | [8] 0.013 | [9] 0.017 | [10] 0.041

NDUFA2 (UniProt O43678)
inactive: [1] 0.063 | [2] 0.063 | [3] 0.04 | [4] 0.082 | [5] -0.022 | [6] -0.07 | [7] -0.01 | [8] 0.051 | [9] -0.013 | [10] -0.034

NKTR (UniProt P30414)
inactive: [1] -0.256 | [2] -0.028 | [3] 0.036 | [4] -0.092 | [5] 0.24 | [6] 0.068 | [7] -0.088 | [8] -0.029 | [9] 0.129 | [10] -0.006

NFKBIE (UniProt O00221)
inactive: [1] -0.068 | [2] 0.029 | [3] 0.055 | [4] 0.054 | [5] 0.013 | [6] 0.038 | [7] -0.14 | [8] 0.047 | [9] -0.03 | [10] 0.014

NIT1 (UniProt Q86X76)
inactive: [1] 0.02 | [2] 0.032 | [3] 0.038 | [4] -0.025 | [5] 0.119 | [6] 0.027 | [7] -0.002 | [8] 0.011 | [9] 0.027 | [10] 0.05

(further entries)

NEFH (UniProt P12036)
inactive: [1] 0.046 | [2] -0.015 | [3] 0.011 | [4] -0.004 | [5] 0.036 | [6] 0.01 | [7] -0.139 | [8] 0.043 | [9] 0.072 | [10] -0.059

NDUFB4 (UniProt O95168)
inactive: [1] 0.108 | [2] 0.043 | [3] -0.02 | [4] 0.016 | [5] 0.074 | [6] -0.013 | [7] 0.07 | [8] -0.027 | [9] 0.005 | [10] -0.057

NDUFS7 (UniProt O75251)
inactive: [1] 0.01 | [2] -0.042 | [3] -0.05 | [4] -0.006 | [5] -0.058 | [6] 0.007 | [7] 0.006 | [8] 0.074 | [9] -0.022 | [10] -0.01

NDC80 (UniProt O14777)
inactive: [1] 0.003 | [2] -0.094 | [3] 0.022 | [4] 0.023 | [5] -0.043 | [6] -0.009 | [7] 0.092 | [8] 0.025 | [9] 0.007 | [10] -0.023

NFYA (UniProt P23511)
inactive: [1] 0.003 | [2] 0.027 | [3] 0.141 | [4] 0.012 | [5] 0.086 | [6] 0.048 | [7] -0.011 | [9] -0.072

NELFCD (UniProt Q8IXH7)
inactive: [1] 0.015 | [2] -0.148 | [3] 0.047 | [4] 0.041 | [5] -0.055 | [6] 0 | [7] 0.073 | [8] 0.023 | [9] -0.006 | [10] -0.009

NEMF (UniProt O60524)
inactive: [1] 0.001 | [2] -0.03 | [3] -0.002 | [4] 0.031 | [5] 0.047 | [6] 0.048 | [7] 0.032 | [8] 0.038 | [9] -0.013 | [10] -0.003

NDUFA3 (UniProt O95167)
inactive: [1] 0.056 | [2] 0.066 | [3] -0.017 | [4] -0.144 | [5] 0.055 | [6] 0.016 | [7] 0.045 | [8] 0.094 | [10] -0.104

NDEL1 isoform 2 (UniProt Q9GZM8)
inactive: [1] -0.011 | [2] 0.083 | [3] 0.097 | [4] 0.046 | [5] 0.012 | [6] 0.05 | [7] -0.082 | [8] -0.007 | [9] 0 | [10] -0.017

NDRG2 (UniProt Q9UN36)
inactive: [1] 0.006 | [2] 0.018 | [3] -0.014 | [4] 0.025 | [5] 0.027 | [6] -0.028 | [7] -0.037 | [8] -0.056 | [9] -0.008 | [10] 0

NIBAN1 (UniProt Q9BZQ8)
inactive: [1] 0.001 | [2] -0.061 | [3] 0.017 | [4] 0.02 | [5] -0.036 | [6] 0.007 | [7] 0.034 | [8] -0.049 | [9] -0.012 | [10] 0.022

NKX2-2 (UniProt O95096)
inactive: [1] -0.248 | [2] 0.152 | [3] -0.095 | [4] -0.088 | [6] -0.098 | [7] 0.067 | [9] 0.133

NKIRAS1 (UniProt Q9NYS0)
inactive: [1] -0.199 | [3] 0.169 | [4] -0.173 | [5] 0.232 | [6] 0.128 | [7] 0.115 | [8] -0.245 | [9] 0.033 | [10] -0.063
